PubChem BioAssay AID602196 – INSERM | 2012
The whole screen tested about 23,000 reagents; shown is a random part of them. 455 of all reagents (2%) count as active. 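Active includes both protection and sensitisation; some change values fall well beyond the stated -50 to +50 range.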 Further read-outs or replicates are left out here. Not stated in the record: the amount of reagent.

Test: 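Knock-downs that protect lung cancer cells from cisplatin or sensitise them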
Cells: human A549 lung cancer cells
Reagents: siRNA pair against human genes
Duration: 48 h transfection before cisplatin; time from cisplatin to read-out not stated
Conditions: cisplatin at a dose killing half of control-siRNA cells; exact dose and duration not given
Measurement: 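Cisplatin cell death as a shift from the 50% death seen with control siRNA; siRNAs toxic or growth-blocking alone scored 0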
Reading the numbers: two-siRNA summed score (-2 to +2): higher = both siRNAs protect from cisplatin killing; -2 means both sensitise
Hit rule: 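siRNAs harmful alone (LDH or WST-1) get 0; others get +1 for less and -1 for more cisplatin killing; genes are active when the two siRNAs give the same sign, summing to ±2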
Meaning of the calls: active = both siRNAs shift cisplatin killing the same way; inactive = no consistent shift, or siRNA harmful alone

gene symbol | PubChem SID | two-siRNA summed score (-2 to +2) | activity call
KLHL27 | SID131516232 | 0 | inactive
LOC440002 | SID131512798 | 0 | inactive
MCM7 | SID131503711 | 0 | inactive
LIMK2 | SID131501765 | -1 | inactive
THOC3 | SID131513191 | 0 | inactive
HEMK1 | SID131500438 | -1 | inactive
TRPC5 | SID131504375 | 0 | inactive
RWDD3 | SID131508601 | 0 | inactive
ANKRD37 | SID131504976 | 0 | inactive
TNFSF14 | SID131507877 | 0 | inactive
SPATA41 | SID131505586 | 0 | inactive
TEX19 | SID131508872 | 0 | inactive
TIAM1-AS1 | SID131515456 | 0 | inactive
ESPN | SID131512061 | 0 | inactive

4 neighbouring records from above:
gene symbol | PubChem SID | two-siRNA summed score (-2 to +2) | activity call
ANKRD37 | SID131504976 | 0 | inactive
TNFSF14 | SID131507877 | 0 | inactive
SPATA41 | SID131505586 | 0 | inactive
TEX19 | SID131508872 | 0 | inactive

The listing continues.
gene symbol | PubChem SID | two-siRNA summed score (-2 to +2) | activity call
ACSM5 | SID131510771 | 0 | inactive
TOB1-AS1 | SID131507799 | 0 | inactive
NSD3 | SID131520420 | 1 | inactive
LOC402628 | SID131506016 | 0 | inactive
TMEM252 | SID131516952 | 0 | inactive
RASD1 | SID131504167 | 0 | inactive
MRPL58 | SID131512394 | 0 | inactive
TRIP4 | SID131523205 | 2 | active
LIN54 | SID131516714 | 0 | inactive
CELF5 | SID131502534 | -1 | inactive
SRL | SID131510983 | 0 | inactive
LOC388739 | SID131506201 | 0 | inactive
LOC392563 | SID131515507 | 0 | inactive
LOC390411 | SID131522581 | 1 | inactive
REXO6P | SID131515678 | 0 | inactive
ASNS | SID131515689 | 0 | inactive
LOC400505 | SID131511555 | 0 | inactive
LOC389440 | SID131509144 | 0 | inactive
RIN2 | SID131514618 | 0 | inactive
LOC440868 | SID131516211 | 0 | inactive
TBL1Y | SID131514351 | 0 | inactive
FEM1A | SID131501217 | -1 | inactive
IFNA21 | SID131501155 | -1 | inactive
STMN1 | SID131504932 | 0 | inactive
STMN1 | SID131508227 | 0 | inactive
